In PubChem BioAssay AID2685 (National Center for Advancing Translational Sciences (NCATS), 2010) one finds cell number change and AC50 data, which are given here for 59 molecules.

Structures are written as SMILES. Some of the results follow. Further columns of the screen follow, without active or inactive calls. Compounds called inactive in the main read-out are mostly missing here. Potencies come from curve fits of mixed quality, noted in brackets.

The nature of this assay: qHTS Assay for Lipid Storage Modulators in Drosophila S3 Cells.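 As to cell number change: cells counted by Cell Tracker Red CMTPX staining in the red channel.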 The conditions noted are these: BODIPY lipid droplet fluorescence, 18-24 h; for cell number change: measured here: cell count max response, cells fed with added oleic acid. In short, it runs like this:
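Drosophila S3 cells got compounds at several concentrations plus oleic acid (400 uM solution). Laser-scanning cytometry with 488 nm excitation read lipid droplets at 500-530 nm and cells at 575-640 nm. Percent activity was relative to 20 uM Triacsin C.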
(Quantitative high-throughput screening tests each substance at several concentrations.)

[1] abbreviates: measured here: lipid fluorescence (Fed channel) AC50, cells fed with added oleic acid.
[2] abbreviates: measured here: cell number channel AC50, cells fed with added oleic acid.

As usually defined, the AC50 is the concentration at which the activity in the assay is half-maximal. As for `O=C(NC1=NCCS1)c1cc(-c2ccc(F)cc2)nc2ccccc12`, the cell number change is 7.07%. Moreover, the AC50 under setting [1] was 0.291 µM [rising, full curve, poor fit].
Take `Cc1nc2ccc(S(=O)(=O)NCC(=O)N3CCCCC3)cc2s1`: the cell number change was -85.3%. Also, the half-maximal activity concentration (AC50) under setting [2] was 32.6 µM [falling, single point].
For `CCn1c(C)cc(/C=C2/SC(=S)N(CC(=O)O)C2=O)c1C`, the cell number change is -2.6%. Also, the AC50 under setting [1] was 0.00411 µM [falling, full curve, poor fit].
In the case of `Cc1cc(OC2CCCCC2)nc(-c2ccccc2O)n1`, the cell number change was -3.34%. Moreover, under setting [1], the AC50 was 2.31 µM [rising, single point].
Turning to `CC(=O)c1c(C(C)=O)c(C)n(-c2ccc(O)cc2)c1C`, the cell number change was -22.8%. The half-maximal activity concentration (AC50) under setting [2] is 0.0731 µM [falling, full curve, poor fit].
For the molecule `CNC(=O)Nc1cccc(NC(=O)NC)n1`, the cell number change was -10.8%. Besides, the concentration at half-maximal activity (AC50) under setting [2] is 0.58 µM [falling, partial curve, poor fit].
In the case of `Cc1cc(F)ccc1NC(=O)CCc1c(C)nn(-c2ccc(N3CCCCC3)nn2)c1C`, the cell number change was -7.65%.
For the molecule `Cc1nn(CCC#N)c2[nH]c(=O)cc(C(F)(F)F)c12`, the cell number change stood at 25.8%. For the same molecule, under setting [2], the AC50 is 0.231 µM [falling, full curve, poor fit]. In addition, under setting [1], the AC50 was 2.91 µM [falling, partial curve].
On to `CC1(C)OC(=O)C(=CNc2ccccc2)C(=O)O1`, for which the cell number change came to 6.34%. The half-maximal activity concentration (AC50) under setting [1] was 5.17 µM [rising, single point].
In the case of `CCc1nnc(NC(=O)C(c2ccccc2)c2ccccc2)s1`, the cell number change was found to be 5.13%. Also, under setting [1], the concentration at half-maximal activity (AC50) is 0.00461 µM [rising, full curve, poor fit].
With `CCn1cc(NC(=O)CCl)c(C)n1`, the cell number change was 17.3%. The AC50 under setting [1] is 0.92 µM [falling, full curve].
For `CCCN1C2=NCCCN2c2ccccc21`, the cell number change was -8.77%.
As to `COc1cccc(C2Nc3cc(Cl)c(S(N)(=O)=O)cc3S(=O)(=O)N2)c1` (stereo not drawn), the cell number change was -17%. Besides, the concentration at half-maximal activity (AC50) under setting [1] was 0.517 µM [falling, full curve].
As for `COc1ccc(N(CC(=O)NC2CCCC2)C(=O)Cn2nnc(-c3ccc(OC)c(OC)c3)n2)cc1`, the cell number change was -3.01%.
Take `COc1ccccc1-c1cn(S(=O)(=O)c2ccc(C)cc2)nc1N`: the cell number change was -16.8%. In addition, under setting [1], the AC50 was 29.1 µM [falling, single point].
For the molecule `COC(=O)C(=C/C(C)=C/c1cccnc1)C(=O)OC`, the cell number change is 9.94%.
For the molecule `O=C(c1ccccn1)c1ncc(C(F)(F)F)cc1Cl`, the cell number change is -28%. In addition, the AC50 under setting [1] is 3.26 µM [falling, partial curve, poor fit].
`CC(C)S(=O)(=O)c1csc(NC(=O)Nc2cccc([N+](=O)[O-])c2)c1Cl`: the cell number change was -58.4%. Moreover, the concentration at half-maximal activity (AC50) under setting [2] was 20.6 µM [falling, single point]. In addition, under setting [1], the AC50 is 18.4 µM [falling, single point].
Consider `O=C1NC[C@@H](Cc2cccc3ccccc23)N(CCCCC2CCCCC2)C1=O`, for which the cell number change was -69.9%. Under setting [2], the AC50 was 20.6 µM [falling, partial curve]. For the same molecule, under setting [1], the half-maximal activity concentration (AC50) was 16.4 µM [falling, partial curve, poor fit].
`Cc1cc(C)c(NC(=O)COC(=O)Cc2cccs2)c(C)c1`: the cell number change is -19.7%.
As to `COc1ccc(C(=O)NCCS(=O)(=O)NC(C)c2ccccc2)cc1` (stereo not drawn), the cell number change is -14.3%. Under setting [1], the AC50 was 2.31 µM [falling, partial curve].
With `Cc1cc(NC(=O)C2CC(c3ccc(F)cc3)=NO2)n(-c2ccccc2)n1` (stereo not drawn), the cell number change came out at 9.71%.
Still for that read-out and setting: the result for `COc1cccc(S(=O)(=O)NCc2ccc(C(=O)Nc3cccc(Cl)c3)cc2)c1` reads 6.47%.
As for `CC(=O)NCCC(=O)NCc1ccc(F)cc1`, the cell number change was -103%. Further, the half-maximal activity concentration (AC50) under setting [2] is 23.1 µM [falling, partial curve]. For the same molecule, the half-maximal activity concentration (AC50) under setting [1] is 23.1 µM [falling, single point].
On to `COc1ccc(OC)c(-n2c(C)cc(/C=C3\C(=N)N4N=C(CC(=O)N5CCOCC5)SC4=NC3=O)c2C)c1`, for which the cell number change is -11.3%. For the same molecule, the AC50 under setting [2] is 0.82 µM [rising, single point].
For the molecule `O=C(CNc1cccc(S(=O)(=O)N2CCCCC2)c1)Nc1cccc(F)c1`, the cell number change stood at 122%. Also, the half-maximal activity concentration (AC50) under setting [2] is 29.1 µM [rising, single point].
As to `Nc1cc(OC(=O)c2cccs2)nn1S(=O)(=O)c1ccc(F)cc1`, the cell number change was -7.66%. Under setting [1], the AC50 was 0.103 µM [falling, full curve, poor fit].
As to `Cc1nc2c(c(C)nn2-c2ccccc2)c(C)c1CCC(=O)Nc1ccc(CN2CCCC2)cc1`, the concentration at half-maximal activity (AC50) by setting is: under setting [2], 0.461 µM [rising, full curve, poor fit]; under setting [1], 0.517 µM [rising, full curve].
With `CSCCC(NC(=O)c1ccccc1Cl)C(=O)N1CCN(C(C)=O)CC1` (stereo not drawn), the cell number change is -17.3%. Moreover, under setting [1], the AC50 was 0.00461 µM [falling, full curve, poor fit].
In the case of `CCc1ccc2oc(=O)cc(CN3CCCCC3C)c2c1` (stereo not drawn), the cell number change was -40.4%. For the same molecule, the AC50 under setting [2] is 14.6 µM [falling, partial curve, poor fit]. In addition, under setting [1], the AC50 was 23.1 µM [falling, single point].
Consider `COc1ccc(NC(=S)NCCc2ccccc2)c(OC)c1`, for which the cell number change turned out to be 40.2%. Besides, the AC50 under setting [1] was 1.3 µM [rising, partial curve].
Turning to `Cc1ccc(OCCNC(=O)c2cccc(S(=O)(=O)NCc3ccccc3)c2)cc1`, the cell number change was -52.1%. Under setting [2], the AC50 is 23.1 µM [falling, single point]. The AC50 under setting [1] was 0.00461 µM [falling, full curve, poor fit].
For the molecule `CCOC1=C/C(=C/c2c(N)n3nc(CC(=O)N4CCCCC4)sc3nc2=O)C=CC1=O`, the cell number change was determined as 1.79%. Moreover, the AC50 under setting [1] was 3.66 µM [falling, partial curve].
Consider `COc1ccc(NC(=O)c2nc[nH]c2C(=O)NCc2ccccc2)cc1`, for which the cell number change was 41.3%. In addition, under setting [2], the half-maximal activity concentration (AC50) is 25.9 µM [rising, single point].
With `COC(=O)COc1ccc(S(=O)(=O)NCc2cccnc2)cc1C`, the cell number change is -3.73%. For the same molecule, the half-maximal activity concentration (AC50) under setting [2] was 0.82 µM [falling, full curve]. Moreover, the half-maximal activity concentration (AC50) under setting [1] is 1.03 µM [falling, full curve].
In the case of `c1ccc(-c2nc3ccccc3s2)nc1`, the cell number change is -31.6%. The concentration at half-maximal activity (AC50) under setting [2] was 18.4 µM [falling, single point]. In addition, the half-maximal activity concentration (AC50) under setting [1] is 29.1 µM [falling, single point].
In the case of `O=C(NCc1ccncc1)/C(=C\c1ccc(F)cc1)NC(=O)c1ccccc1`, the cell number change worked out at 2.9%. Besides, the AC50 under setting [1] was 23.1 µM [falling, single point].
`Cc1ccc(S(=O)(=O)N2CCCC2CNC(=O)C(=O)NCCN2CCOCC2)cc1` (stereo not drawn): the cell number change is -12.1%. Further, the AC50 under setting [1] is 0.184 µM [falling, full curve, poor fit].
Turning to `CCCC(NC(=O)CCc1c(C)c2cc3c4c(oc3c(C)c2oc1=O)CCCC4)C(=O)O` (stereo not drawn), the cell number change amounted to 8.51%. Also, the half-maximal activity concentration (AC50) under setting [1] is 8.2 µM [rising, partial curve].
In the case of `CC(C)(C)OC(=O)NCC(=O)Oc1cc2oc(=O)cc(-c3ccccc3)c2cc1Cl`, the cell number change amounted to 16.6%. For the same molecule, the AC50 under setting [1] is 20.6 µM [rising, partial curve].
In the case of `CSc1ccc(S(=O)(=O)N2CCC(C(=O)Nc3cccnc3)CC2)cc1`, the cell number change was -17.1%. Besides, the AC50 under setting [1] was 0.1 µM [falling, full curve, poor fit].
`O=S(=O)(c1cccc(NC(=S)N2CCN(c3ccccc3F)CC2)c1)C(F)F`: the cell number change stood at 17.6%. Besides, the AC50 under setting [1] is 29.1 µM [rising, single point].
As for `O=C(Oc1ccc2ccccc2c1)c1ccccc1`, the cell number change is -7.79%. Further, the concentration at half-maximal activity (AC50) under setting [1] was 29.1 µM [falling, single point].
For `CCOC(=O)C1=C(Cc2ccc(Cl)cc2)C(=O)c2ccccc2C1=O`, the cell number change was -96.4%. For the same molecule, under setting [1], the AC50 is 4.61 µM [falling, single point].
Regarding `COc1ccc([N+](=O)[O-])cc1NC(=O)C1C2C=CC(C2)C1C(=O)O` (stereo not drawn), the cell number change is -17.1%.
On to `O=C(Nc1ccc(-c2nc3ncccc3o2)cc1)c1ccc([N+](=O)[O-])o1`, for which the cell number change was -0.427%. In addition, the concentration at half-maximal activity (AC50) under setting [1] is 0.291 µM [falling, full curve].
For `Cc1ccc(NC(=O)Cc2nc(COC(=O)C(C)NS(=O)(=O)c3ccc(C)cc3)cs2)cc1` (stereo not drawn), the cell number change is -1.38%. Further, under setting [1], the concentration at half-maximal activity (AC50) was 0.00411 µM [rising, full curve, poor fit].
Consider `O=C(Cc1ccc(Br)cc1)Nc1ccccc1Cl`, for which the cell number change amounted to 8.33%. For the same molecule, the half-maximal activity concentration (AC50) under setting [1] is 29.1 µM [rising, single point].
As to `CC(C)(C)NC(=O)NC(=O)COC(=O)COc1ccc2c(c1)CCC2`, the cell number change is -41.3%. Under setting [2], the AC50 is 3.66 µM [falling, single point]. For the same molecule, the concentration at half-maximal activity (AC50) under setting [1] was 29.1 µM [falling, single point].
For the molecule `COc1cc(CNc2ncn[nH]2)ccc1OCc1ccccc1C`, the cell number change is 38.2%. For the same molecule, under setting [2], the AC50 is 0.164 µM [rising, partial curve].
`COc1cccc(C(=O)OCC(=O)NC(C)CCc2ccccc2)c1O` (stereo not drawn): the cell number change was 18.5%. The AC50 under setting [1] was 20.6 µM [falling, single point].
For the molecule `COc1ccc(-c2cnnc(N/N=C/c3c(C)nn(-c4ccccc4)c3Cl)n2)cc1`, the cell number change is -0.74%.
On to `Cc1cc(NC(=O)CCC(=O)N(Cc2ccccc2)C2(C(=O)NC3CCCCC3)CCCC2)no1`, for which the cell number change came to 9.11%. Also, the AC50 under setting [1] was 0.13 µM [falling, partial curve, poor fit].
For the molecule `CN(C(=O)c1nc(-c2ccccc2)n(-c2ccccc2)n1)C1CCS(=O)(=O)C1` (stereo not drawn), the cell number change is -17.6%.
For `CC(C)(C)c1ccc(-n2ncc3c2CCCC3NC(=O)c2csnn2)cc1` (stereo not drawn), the cell number change was -45%. Moreover, the AC50 under setting [2] is 0.146 µM [falling, full curve, poor fit]. The concentration at half-maximal activity (AC50) under setting [1] was 0.146 µM [falling, full curve].
`CCN(CC)CCN(Cc1cc2ccc(C)cc2[nH]c1=O)C(=S)Nc1ccccc1C(=O)OC`: the cell number change was -22.8%. The concentration at half-maximal activity (AC50) under setting [1] was 29.1 µM [falling, single point].
Turning to `CCN(CC(=O)Nc1ccc(OC)cc1)C(=O)COc1cccc2c1OC(C)(C)C2`, the concentration at half-maximal activity (AC50) is 2.91 µM [falling, partial curve] under setting [2] and 0.82 µM [falling, partial curve] under setting [1].
Turning to `Brc1ccc2nc(-c3ccncc3)c(NC3CCCC3)n2c1`, the cell number change is -0.36%.
As for `CC(C)CCNC(=O)C(c1ccncc1)N(C(=O)Cn1nnc(-c2ccc(F)cc2)n1)c1ccccc1F` (stereo not drawn), the cell number change amounted to 75.6%. In addition, under setting [2], the half-maximal activity concentration (AC50) was 16.4 µM [rising, single point]. For the same molecule, the half-maximal activity concentration (AC50) under setting [1] is 20.6 µM [rising, single point].
